Source: PMC3598691
These are yes or no findings as the source states them, for the method shown. In cells and extracts the contact can be indirect. Some results given as binding are weak or reduced against the parent protein; the word gives no strength. Tags and fused reporters may be left off the sequences shown.

T1: FLAG-dADA2bL (Drosophila melanogaster) (UniProt Q8I8V0)
T1 sequence: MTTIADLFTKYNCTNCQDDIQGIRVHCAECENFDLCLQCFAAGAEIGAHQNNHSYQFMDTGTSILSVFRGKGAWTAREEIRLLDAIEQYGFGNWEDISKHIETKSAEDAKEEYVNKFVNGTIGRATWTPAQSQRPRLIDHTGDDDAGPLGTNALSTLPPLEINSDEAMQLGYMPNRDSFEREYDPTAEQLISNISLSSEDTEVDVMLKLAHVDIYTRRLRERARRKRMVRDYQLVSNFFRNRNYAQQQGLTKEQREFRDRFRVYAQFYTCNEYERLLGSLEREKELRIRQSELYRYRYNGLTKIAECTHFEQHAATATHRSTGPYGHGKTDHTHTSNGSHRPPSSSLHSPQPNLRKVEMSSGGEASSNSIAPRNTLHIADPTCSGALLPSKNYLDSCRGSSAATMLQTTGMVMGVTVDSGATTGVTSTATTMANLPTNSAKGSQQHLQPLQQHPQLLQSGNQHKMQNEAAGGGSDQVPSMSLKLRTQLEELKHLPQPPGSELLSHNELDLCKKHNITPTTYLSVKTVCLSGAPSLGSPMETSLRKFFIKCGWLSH

T2: FLAG-dADA2bS (Drosophila melanogaster) (UniProt Q8I8V0)
T2 sequence: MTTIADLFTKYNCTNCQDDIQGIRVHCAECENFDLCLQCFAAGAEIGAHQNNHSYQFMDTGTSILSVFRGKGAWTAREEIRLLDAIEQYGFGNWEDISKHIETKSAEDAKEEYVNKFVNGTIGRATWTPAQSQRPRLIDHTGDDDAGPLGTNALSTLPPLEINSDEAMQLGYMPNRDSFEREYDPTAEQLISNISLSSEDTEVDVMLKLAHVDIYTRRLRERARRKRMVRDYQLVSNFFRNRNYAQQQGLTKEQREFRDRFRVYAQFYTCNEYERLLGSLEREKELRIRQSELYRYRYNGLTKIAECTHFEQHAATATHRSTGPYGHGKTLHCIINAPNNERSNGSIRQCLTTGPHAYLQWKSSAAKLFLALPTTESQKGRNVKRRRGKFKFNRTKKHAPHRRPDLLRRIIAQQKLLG


Columns and labels:
[1] = target: T1, FLAG-dADA2bL (Drosophila melanogaster); assay: co-IP; FLAG- and HA-tagged proteins co-expressed in S2 cells; lysis in RIPA buffer (150 mM NaCl, 1% NP-40, 0.5% SDS); lysates incubated overnight with anti-FLAG M2-agarose beads; five washes with TBST (400 mM NaCl, 1% Tween 20); blots with anti-HA and anti-FLAG
[2] = target: T2, FLAG-dADA2bS (Drosophila melanogaster); assay: as above

Binder	binding [1]	binding [2]
HA-dADA2bS (protein, UniProt Q8I8V0-2 1-418) MTTIADLFTKYNCTNCQDDIQGIRVHCAECENFDLCLQCFAAGAEIGAHQNNHSYQFMDTGTSILSVFRGKGAWTAREEIRLLDAIEQYGFGNWEDISKHIETKSAEDAKEEYVNKFVNGTIGRATWTPAQSQRPRLIDHTGDDDAGPLGTNALSTLPPLEINSDEAMQLGYMPNRDSFEREYDPTAEQLISNISLSSEDTEVDVMLKLAHVDIYTRRLRERARRKRMVRDYQLVSNFFRNRNYAQQQGLTKEQREFRDRFRVYAQFYTCNEYERLLGSLEREKELRIRQSELYRYRYNGLTKIAECTHFEQHAATATHRSTGPYGHGKTLHCIINAPNNERSNGSIRQCLTTGPHAYLQWKSSAAKLFLALPTTESQKGRNVKRRRGKFKFNRTKKHAPHRRPDLLRRIIAQQKLLG	binds	–
HA-dADA2bL (protein, UniProt Q8I8V0-1 1-555) MTTIADLFTKYNCTNCQDDIQGIRVHCAECENFDLCLQCFAAGAEIGAHQNNHSYQFMDTGTSILSVFRGKGAWTAREEIRLLDAIEQYGFGNWEDISKHIETKSAEDAKEEYVNKFVNGTIGRATWTPAQSQRPRLIDHTGDDDAGPLGTNALSTLPPLEINSDEAMQLGYMPNRDSFEREYDPTAEQLISNISLSSEDTEVDVMLKLAHVDIYTRRLRERARRKRMVRDYQLVSNFFRNRNYAQQQGLTKEQREFRDRFRVYAQFYTCNEYERLLGSLEREKELRIRQSELYRYRYNGLTKIAECTHFEQHAATATHRSTGPYGHGKTDHTHTSNGSHRPPSSSLHSPQPNLRKVEMSSGGEASSNSIAPRNTLHIADPTCSGALLPSKNYLDSCRGSSAATMLQTTGMVMGVTVDSGATTGVTSTATTMANLPTNSAKGSQQHLQPLQQHPQLLQSGNQHKMQNEAAGGGSDQVPSMSLKLRTQLEELKHLPQPPGSELLSHNELDLCKKHNITPTTYLSVKTVCLSGAPSLGSPMETSLRKFFIKCGWLSH	–	binds
